PubChem BioAssay AID504744 – Drosophila RNAi Screening Center | 2011
In all, the deposit lists about 23,000 reagents; shown is an unselected part of those that have a named target and a result. Over the whole deposit, 98 (0.43%) were called active. 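Only hit calls are given; the phospho-dAkt signals, z-scores and hit direction were not deposited.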 The numbers tell different reagents against one gene apart. A plus sign joins genes that one reagent is predicted to hit. Reagent sequences are not shown.

Purpose: 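Find genes whose loss alters insulin-driven dAkt phosphorylation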 (primary screen)
Cells: Drosophila Kc167 cells
Reagent: long dsRNA against Drosophila genes, 250 ng dsRNA per well of a 384-well plate
Time to read-out: 3 days of knock-down, then overnight serum-free starvation before stimulation
Treatment: bovine insulin at 387 nM for 10 minutes after 12 h without serum
Measurement: 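In-cell antibody fluorescence for phospho-dAkt in each well over DNA-dye signal, with log2 residuals expressed as z-scores adjusted for cell count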
Rule for the call: 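Hit in the insulin screen when the two-replicate mean z-score is more extreme than plus or minus 2.5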

no.	gene knocked down	reagent no.	activity call
1	CCHa1-R (CCHamide-1 receptor)	1	inactive
2	CCHa1-R (CCHamide-1 receptor)	2	inactive
3	kay (kayak)	1	inactive
4	kay (kayak)	2	inactive
5	kay (kayak)	3	inactive
6	CG14722	1	inactive
7	CG33093	1	inactive
8	HLH4C (Helix loop helix protein 4C)	1	inactive
9	HLH4C (Helix loop helix protein 4C)	2	inactive
10	chb (chromosome bows)	1	inactive
11	Sec22 (Secretory 22)	1	inactive
12	CG9503	1	inactive
13	CG9503	2	inactive
14	CG18335	1	inactive
15	Roe1	1	inactive
16	Mccc2 (Methylcrotonoyl-CoA carboxylase 2)	1	inactive
17	CG13332	1	inactive
18	Pdp1 (PAR-domain protein 1)	1	inactive
19	Pdp1 (PAR-domain protein 1)	2	inactive
20	Pdp1 (PAR-domain protein 1)	3	inactive
21	Btnd (Biotinidase)	1	inactive
22	squ (squash)	1	inactive
23	CG15891 + CG15892	1	inactive
24	CG15891 + CG15892	2	inactive
25	Ero1L (Endoplasmic reticulum oxidoreductin-1-like)	1	inactive
26	Ir60d (Ionotropic receptor 60d)	1	inactive
27	CG11474	1	inactive
28	Vap33 (VAMP-associated protein 33kDa)	1	inactive
29	CG1774	1	inactive
30	Myo31DF (Myosin 31DF)	1	inactive
31	Myo31DF (Myosin 31DF)	2	inactive
32	CG3294	1	inactive
33	Zip42C.1 (Zinc/iron regulated transporter-related protein 42C.1)	1	inactive
34	ND-15 (NADH dehydrogenase (ubiquinone) 15 kDa subunit)	1	inactive
35	CR42545 (pseudo)	1	inactive
36	mRpS30 (mitochondrial ribosomal protein S30)	1	inactive
37	Targ (Tarag)	1	inactive
38	mRpL45 (mitochondrial ribosomal protein L45)	1	inactive
39	mRpL2 (mitochondrial ribosomal protein L2)	1	inactive
40	Acp53C14b (Accessory gland protein 53C14b)	1	inactive
41	CG5787	1	inactive
42	D19B	1	inactive
43	dpp (decapentaplegic)	1	inactive
44	dpp (decapentaplegic)	2	inactive
45	dpp (decapentaplegic)	3	inactive
46	cGlr1 (cGAS-like receptor 1)	1	inactive
47	CG17292	1	inactive
48	CG14715	1	inactive
49	wol (wollknaeuel)	1	inactive
50	CG6429	1	inactive
51	fs(1)Yb (female sterile (1) Yb)	1	inactive
52	CG3600 (retired record)	1	inactive
53	Mvl (Malvolio)	1	inactive
54	CG8329	1	inactive
55	Trf4-2 (Topoisomerase related function 4-2)	1	inactive
56	Fsn (F-box synaptic protein)	1	inactive
57	CG9062	1	inactive
58	CG14352	1	inactive
59	CG14053	1	inactive
60	Cpr49Ag (Cuticular protein 49Ag)	1	inactive
61	CG7094	1	inactive
62	CG7568	1	inactive
63	Pld (Phospholipase D)	1	inactive
64	CG13562	1	inactive
65	CG31624	1	inactive
66	CG17839	1	inactive
67	CG17839	2	inactive
68	CG2061	1	inactive
69	CG14903	1	inactive
70	Capa (Capability)	1	inactive
71	CG17637	1	inactive
72	CG6508	1	inactive
73	CG31807	1	inactive
74	ths (thisbe)	1	inactive
75	RpS24 (Ribosomal protein S24)	1	inactive
76	Patronin	1	inactive
77	Patronin	2	inactive
78	Patronin	3	inactive
79	psd (palisade)	1	inactive
80	CG14380	1	inactive
81	CG6426	1	inactive
82	CG14647	1	inactive
83	CG14647	2	inactive
84	slif (slimfast)	1	inactive
85	Miro (Mitochondrial Rho)	1	inactive
86	Etfb (Electron transfer flavoprotein beta subunit)	1	inactive
87	Cht7 + tRNA:Cys-GCA-1-4 + tRNA:Lys-CTT-1-13	1	inactive
88	Rad51D (Rad51 recombinase D)	1	inactive
89	CG3625	1	inactive
90	CG3625	2	inactive

Reformatted: entries from further up.
gene knocked down	reagent no.	activity call
CG3294	1	inactive
Zip42C.1 (Zinc/iron regulated transporter-related protein 42C.1)	1	inactive
ND-15 (NADH dehydrogenase (ubiquinone) 15 kDa subunit)	1	inactive
CR42545 (pseudo)	1	inactive
mRpS30 (mitochondrial ribosomal protein S30)	1	inactive
Targ (Tarag)	1	inactive
mRpL45 (mitochondrial ribosomal protein L45)	1	inactive
mRpL2 (mitochondrial ribosomal protein L2)	1	inactive
Acp53C14b (Accessory gland protein 53C14b)	1	inactive
CG5787	1	inactive

The results go on.
no.	gene knocked down	reagent no.	activity call
91	CG4069	1	inactive
92	rdgA (retinal degeneration A)	1	inactive
93	rdgA (retinal degeneration A)	2	inactive
94	rdgA (retinal degeneration A)	3	inactive
95	CG6739	1	inactive
96	CG11656	1	inactive
97	CG9400	1	inactive
98	nmo (nemo)	1	inactive
99	nmo (nemo)	2	inactive
100	CG4610	1	inactive
101	CG4610	2	inactive
102	Lcp65Ab2 + Lcp65Ab1	1	inactive
103	Lcp65Ab2 + Lcp65Ab1	2	inactive
104	RpL40 (Ribosomal protein L40)	1	inactive
105	CG14252	1	inactive
106	CG15499 (retired record)	1	inactive
107	CSN1a (COP9 signalosome subunit 1a)	1	inactive
108	CG16956	1	inactive
109	CG13297	1	inactive
110	MFS15 (Major Facilitator Superfamily Transporter 15)	1	inactive
111	Polr1F (RNA polymerase I subunit F)	1	inactive
112	CG31126	1	inactive
113	TwdlP (TweedleP)	1	inactive
114	Bsg (Basigin)	1	inactive
115	Bsg (Basigin)	2	inactive
116	sky (skywalker)	1	inactive
117	sky (skywalker)	2	inactive
118	sky (skywalker)	3	inactive
119	Npc2e (Niemann-Pick type C-2e)	1	inactive
120	Npc2e (Niemann-Pick type C-2e)	2	inactive
121	lncRNA:CR32661 (long non-coding RNA:CR32661)	1	inactive
122	CG12929	1	inactive
123	CG33107	1	inactive
124	Hrb87F (Heterogeneous nuclear ribonucleoprotein at 87F)	1	inactive
125	CG5131	1	inactive
126	Ir51a (Ionotropic receptor 51a)	1	inactive
127	Mgat1	1	inactive
128	beat-IIIb (beaten path IIIb)	1	inactive
129	CG16717	1	inactive
130	ebi	1	inactive
131	Bre1	1	inactive
132	Elba1 (Early boundary activity 1)	1	inactive
133	CG43902	1	inactive
134	Iml1 (Increased minichromosome loss 1)	1	active
135	lncRNA:CR42862 (long non-coding RNA:CR42862)	1	inactive
136	DNAlig1 (DNA ligase 1)	1	inactive
137	Syn (Synapsin)	1	inactive
138	CG3251	1	inactive
139	sni (sniffer)	1	inactive
140	CG14810	1	inactive
141	CG14810	2	inactive
142	CG15743	1	inactive
143	CG13280	1	inactive
144	Root (Rootletin)	1	inactive
145	CG18599	1	inactive
146	CG18599	2	inactive
147	Polr3C (RNA polymerase III subunit C)	1	active
148	CG42307 + mus312	1	inactive
149	Cpr12A (Cuticular protein 12A)	1	inactive
150	SmE (Small ribonucleoprotein particle protein SmE)	1	inactive
151	CG31510	1	active
152	Ccp84Ac	1	inactive
153	Kank	1	inactive
154	Kank	2	inactive
155	Pis (Phosphatidylinositol synthase)	1	inactive
156	CG15812	1	inactive
157	Exd2 (Exonuclease 3'-5' domain-containing 2)	1	inactive
